From paper doi:10.1101/2022.01.28.478199 come the findings set out here.

The chains behind the UniProt entries cited, without tags or fusion partners. Where a name states a change or a piece, a line headed by the entry shows the natural chain unless it says otherwise. Residues count along the entry.
UniProt P33416, residues 45-811: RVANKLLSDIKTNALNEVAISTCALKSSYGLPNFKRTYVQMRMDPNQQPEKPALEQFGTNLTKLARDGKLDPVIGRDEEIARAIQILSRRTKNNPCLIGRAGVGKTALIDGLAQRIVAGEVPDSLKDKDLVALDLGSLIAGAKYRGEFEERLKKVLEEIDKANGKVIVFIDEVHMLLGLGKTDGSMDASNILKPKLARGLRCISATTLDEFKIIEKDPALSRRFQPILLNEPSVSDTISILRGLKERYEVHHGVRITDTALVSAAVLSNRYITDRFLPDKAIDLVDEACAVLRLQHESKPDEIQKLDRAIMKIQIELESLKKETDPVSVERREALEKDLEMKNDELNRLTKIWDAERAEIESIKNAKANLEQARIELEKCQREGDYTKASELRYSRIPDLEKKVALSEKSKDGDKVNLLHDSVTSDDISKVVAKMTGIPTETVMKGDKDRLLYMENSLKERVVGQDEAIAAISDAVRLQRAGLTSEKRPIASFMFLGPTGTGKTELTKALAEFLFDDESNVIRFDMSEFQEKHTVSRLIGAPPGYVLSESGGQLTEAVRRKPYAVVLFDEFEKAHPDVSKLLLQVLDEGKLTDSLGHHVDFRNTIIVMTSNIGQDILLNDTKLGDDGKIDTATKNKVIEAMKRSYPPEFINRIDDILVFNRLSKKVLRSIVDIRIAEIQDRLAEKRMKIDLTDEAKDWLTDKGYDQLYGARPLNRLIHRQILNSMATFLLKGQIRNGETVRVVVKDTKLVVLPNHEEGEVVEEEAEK

These are yes or no findings as the source states them, for the method shown. Binding seen in cells or lysates may run through a third protein. These calls come from enrichment with a bait or labelling near it, and not all partners need be listed. For some assays here: No binding means not detected with the bait.

The target of assay [1] is Hsp78TR-6xHis (Hsp78 E216Q/E614Q Walker B mutant with a C-terminal 6x polyhistidine-tag) (S. cerevisiae) (UniProt P33416). The experiment in a line: affinity purification with mass spectrometry.
The target of assay [2] is Hsp78-6xHis (wild-type Hsp78 with a C-terminal 6x polyhistidine-tag) (S. cerevisiae) (UniProt P33416). The experiment in a line: affinity purification with mass spectrometry.

B1: Ilv5 (protein, UniProt P06168 48-395)
chain: LKQINFGGTVETVYERADWPREKLLDYFKNDTFALIGYGSQGYGQGLNLRDNGLNVIIGVRKDGASWKAAIEDGWVPGKNLFTVEDAIKRGSYVMNLLSDAAQSETWPAIKPLLTKGKTLYFSHGFSPVFKDLTHVEPPKDLDVILVAPKGSGRTVRSLFKEGRGINSSYAVWNDVTGKAHEKAQALAVAIGSGYVYQTTFEREVNSDLYGERGCLMGGIHGMFLAQYDVLRENGHSPSEAFNETVEEATQSLYPLIGKYGMDYMYDACSTTARRGALDWYPIFKNALKPVFQDLYESTKNGTETKRSLEFNSQPDYREKLEKELDTIRNMEIWKVGKEVRKLRPENQ
On to B1, for which the binding result in assay [1] was “binds”.

B2: Prx1 (protein, UniProt P34227 14-261)
chain: AWTLPKQAHLQSQTIKTFATAPILCKQFKQSDQPRLRINSDAPNFDADTTVGKINFYDYLGDSWGVLFSHPADFTPVCTTEVSAFAKLKPEFDKRNVKLIGLSVEDVESHEKWIQDIKEIAKVKNVGFPIIGDTFRNVAFLYDMVDAEGFKNINDGSLKTVRSVFVIDPKKKIRLIFTYPSTVGRNTSEVLRVIDALQLTDKEGVVTPINWQPADDVIIPPSVSNDEAKAKFGQFNEIKPYLRFTKSK
In the case of B2, the binding entry in assay [1] and in assay [2] was “binds” each time.

B3: Lsp1 (protein, UniProt Q12230 1-341)
chain: MHRTYSLRNQRAPTAAELQAPPPPPSSTKSKFFGKASIASSFRKNAAGNFGPELARKLSQLVKTEKGVLRAMEVVASERREAAKQLSLWGADNDDDVSDVTDKLGVLIYELGELQDQFIDKYDQYRVTLKSIRNIEASVQPSRDRKEKITDEIAHLKYKDPQSTKIPVLEQELVRAEAESLVAEAQLSNITREKLKAAYSYMFDSLRELSEKFALIAGYGKALLELLDDSPVTPGEARPAYDGYEASRQIIMDAESALESWTLDMAAVKPTLSFHQTVDDVYEDEDGEEEEEPEIQNGDIPGQVVEEEEVEWTTEVPVDDEAHEADHHVSQNGHTSGSENI
As for B3, the binding entry in assay [2] is “no binding”.

B4: Aco1 (aconitase) (protein, UniProt P19414 17-778)
chain: ATVSNLTRDSKVNQNLLEDHSFINYKQNVETLDIVRKRLNRPFTYAEKILYGHLDDPHGQDIQRGVSYLKLRPDRVACQDATAQMAILQFMSAGLPQVAKPVTVHCDHLIQAQVGGEKDLKRAIDLNKEVYDFLASATAKYNMGFWKPGSGIIHQIVLENYAFPGALIIGTDSHTPNAGGLGQLAIGVGGADAVDVMAGRPWELKAPKILGVKLTGKMNGWTSPKDIILKLAGITTVKGGTGKIVEYFGDGVDTFSATGMGTICNMGAEIGATTSVFPFNKSMIEYLEATGRGKIADFAKLYHKDLLSADKDAEYDEVVEIDLNTLEPYINGPFTPDLATPVSKMKEVAVANNWPLDVRVGLIGSCTNSSYEDMSRSASIVKDAAAHGLKSKTIFTVTPGSEQIRATIERDGQLETFKEFGGIVLANACGPCIGQWDRRDIKKGDKNTIVSSYNRNFTSRNDGNPQTHAFVASPELVTAFAIAGDLRFNPLTDKLKDKDGNEFMLKPPHGDGLPQRGYDAGENTYQAPPADRSTVEVKVSPTSDRLQLLKPFKPWDGKDAKDMPILIKAVGKTTTDHISMAGPWLKYRGHLENISNNYMIGAINAENKKANCVKNVYTGEYKGVPDTARDYRDQGIKWVVIGDENFGEGSSREHAALEPRFLGGFAIITKSFARIHETNLKKQGLLPLNFKNPADYDKINPDDRIDILGLAELAPGKPVTMRVHPKNGKPWDAVLTHTFNDEQIEWFKYGSALNKIKADEKK
Consider B4, for which the binding result in assay [2] is given as “binds”.

B5: Lsc2 (subunit of the succinate-CoA ligase) (protein, UniProt P53312 31-427)
chain: LSIHEYRSAQLLREYGIGTPEGFPAFTPEEAFEAAKKLNTNKLVIKAQALTGGRGKGHFDTGYKSGVHMIESPQQAEDVAKEMLNHNLITKQTGIAGKPVSAVYIVKRVDTKHEAYLSILMDRQTKKPMIIASSQGGMNIEEVAERTPDAIKKFSIETSKGLSPQMAKDVAKSLGFSPDAQDEAAKAVSNLYKIFMERDATQVEINPLSEIEHDPTHKIMCTDAKFGFDDNASFRQEKIYSWRDLSQEDPDEVKAKKYDLNFVKLKGNIGCLVNGAGLAMATMDVIKLNGGDPANFLDCGGGATPETIKQGFELILSNKNVDAIFVNIFGGIVRCDYVALGLVEAARELEVRVPIVARLQGTKVEEGRDIINKSGVKIYSFDELDPAAKKVVELTQN
For the molecule B5, the binding entry in assay [1] is reported as “binds”.

B6: Sdh2 (protein, UniProt P21801 21-266)
chain: TATTAAATHTPRLKTFKVYRWNPDEPSAKPHLQSYQVDLNDCGPMVLDALLKIKDEQDSTLTFRRSCREGICGSCAMNIGGRNTLACICKIDQNESKQLKIYPLPHMFIVKDLVPDLTNFYQQYKSIQPYLQRSSFPKDGTEVLQSIEDRKKLDGLYECILCACCSTSCPSYWWNQEQYLGPAVLMQAYRWLIDSRDQATKTRKAMLNNSMSLYRCHTIMNCTRTCPKGLNPGLAIAEIKKSLAFA
Regarding B6, the binding result in assay [1] and in assay [2] was “binds” throughout.

B7: Fum1 (protein, UniProt P08417 25-488)
chain: NSSFRTETDAFGEIHVPADKYWGAQTQRSFQNFKIGGARERMPLPLVHAFGVLKKSAAIVNESLGGLDPKISKAIQQAADEVASGKLDDHFPLVVFQTGSGTQSNMNANEVISNRAIEILGGKIGSKQVHPNNHCNQSQSSNDTFPTVMHIAASLQIQNELIPELTNLKNALEAKSKEFDHIVKIGRTHLQDATPLTLGQEFSGYVQQVENGIQRVAHSLKTLSFLAQGGTAVGTGLNTKPGFDVKIAEQISKETGLKFQTAPNKFEALAAHDAIVECSGALNTLACSLFKIAQDIRYLGSGPRCGYHELMLPENEPGSSIMPGKVNPTQNEALTQVCVQVMGNNAAITFAGSQGQFELNVFKPVMIANLLNSIRLITDAAYSFRVHCVEGIKANEPRIHELLTKSLMLVTALNPKIGYDAASKVAKNAHKKGITLKESALELGVLTEKEFDEWVVPEHMLGPK
As to B7, in assay [2], the binding entry is listed as “binds”.

B8: Mcr1 (NADH-cytochrome b5 reductase) (protein, UniProt P36060 1-302)
chain: MFSRLSRSHSKALPIALGTVAIAAATAFYFANRNQHSFVFNESNKVFKGDDKWIDLPISKIEEESHDTRRFTFKLPTEDSEMGLVLASALFAKFVTPKGSNVVRPYTPVSDLSQKGHFQLVVKHYEGGKMTSHLFGLKPNDTVSFKGPIMKWKWQPNQFKSITLLGAGTGINPLYQLAHHIVENPNDKTKVNLLYGNKTPQDILLRKELDALKEKYPDKFNVTYFVDDKQDDQDFDGEISFISKDFIQEHVPGPKESTHLFVCGPPPFMNAYSGEKKSPKDQGELIGILNNLGYSKDQVFKF
Take B8: the binding result in assay [1] and in assay [2] was “binds” in each case.

B9: Pil1 (protein, UniProt P53252 1-339)
chain: MHRTYSLRNSRAPTASQLQNPPPPPSTTKGRFFGKGGLAYSFRRSAAGAFGPELSRKLSQLVKIEKNVLRSMELTANERRDAAKQLSIWGLENDDDVSDITDKLGVLIYEVSELDDQFIDRYDQYRLTLKSIRDIEGSVQPSRDRKDKITDKIAYLKYKDPQSPKIEVLEQELVRAEAESLVAEAQLSNITRSKLRAAFNYQFDSIIEHSEKIALIAGYGKALLELLDDSPVTPGETRPAYDGYEASKQIIIDAESALNEWTLDSAQVKPTLSFKQDYEDFEPEEGEEEEEEDGQGRWSEDEQEDGQIEEPEQEEEGAVEEHEQVGHQQSESLPQQTTA
For B9, the binding result in assay [2] is recorded as “no binding”.

B10: Ald4 (aldehyde dehydrogenase) (protein, UniProt P46367 25-519)
chain: SHLPMTVPIKLPNGLEYEQPTGLFINNKFVPSKQNKTFEVINPSTEEEICHIYEGREDDVEEAVQAADRAFSNGSWNGIDPIDRGKALYRLAELIEQDKDVIASIETLDNGKAISSSRGDVDLVINYLKSSAGFADKIDGRMIDTGRTHFSYTKRQPLGVCGQIIPWNFPLLMWAWKIAPALVTGNTVVLKTAESTPLSALYVSKYIPQAGIPPGVINIVSGFGKIVGEAITNHPKIKKVAFTGSTATGRHIYQSAAAGLKKVTLELGGKSPNIVFADAELKKAVQNIILGIYYNSGEVCCAGSRVYVEESIYDKFIEEFKAASESIKVGDPFDESTFQGAQTSQMQLNKILKYVDIGKNEGATLITGGERLGSKGYFIKPTVFGDVKEDMRIVKEEIFGPVVTVTKFKSADEVINMANDSEYGLAAGIHTSNINTALKVADRVNAGTVWINTYNDFHHAVPFGGFNASGLGREMSVDALQNYLQVKAVRAKLDE
Turning to B10, the binding entry in assay [1] and in assay [2] was “binds” each time.

B11: Alt1 (protein, UniProt P52893 65-592)
chain: SSSWIVAQNHRRSLSGQSSLNDLRHLNRFPHHTLKTSNNEFYPAEQLTLEDVNENVLKAKYAVRGAIPMRAEELKAQLEKDPQSLPFDRIINANIGNPQQLQQKPLTYYRQVLSLLQYPELLNQNEQQLVDSKLFKLDAIKRAKSLMEDIGGSVGAYSSSQGVEGIRKSVAEFITKRDEGEISYPEDIFLTAGASAAVNYLLSIFCRGPETGVLIPIPQYPLYTATLALNNSQALPYYLDENSGWSTNPEEIETVVKEAIQNEIKPTVLVVINPGNPTGAVLSPESIAQIFEVAAKYGTVVIADEVYQENIFPGTKFHSMKKILRHLQREHPGKFDNVQLASLHSTSKGVSGECGQRGGYMELTGFSHEMRQVILKLASISLCPVVTGQALVDLMVRPPVEGEESFESDQAERNSIHEKLITRAMTLYETFNSLEGIECQKPQGAMYLFPKIDLPFKAVQEARHLELTPDEFYCKKLLESTGICTVPGSGFGQEPGTYHLRTTFLAPGLEWIKKWESFHKEFFDQYRD
With B11, the binding entry in assay [1] and in assay [2] was “binds” each time.

B12: Ilv2 (protein, UniProt P07342 91-687)
chain: GLTGGQIFNEMMSRQNVDTVFGYPGGAILPVYDAIHNSDKFNFVLPKHEQGAGHMAEGYARASGKPGVVLVTSGPGATNVVTPMADAFADGIPMVVFTGQVPTSAIGTDAFQEADVVGISRSCTKWNVMVKSVEELPLRINEAFEIATSGRPGPVLVDLPKDVTAAILRNPIPTKTTLPSNALNQLTSRAQDEFVMQSINKAADLINLAKKPVLYVGAGILNHADGPRLLKELSDRAQIPVTTTLQGLGSFDQEDPKSLDMLGMHGCATANLAVQNADLIIAVGARFDDRVTGNISKFAPEARRAAAEGRGGIIHFEVSPKNINKVVQTQIAVEGDATTNLGKMMSKIFPVKERSEWFAQINKWKKEYPYAYMEETPGSKIKPQTVIKKLSKVANDTGRHVIVTTGVGQHQMWAAQHWTWRNPHTFITSGGLGTMGYGLPAAIGAQVAKPESLVIDIDGDASFNMTLTELSSAVQAGTPVKILILNNEEQGMVTQWQSLFYEHRYSHTHQLNPDFIKLAEAMGLKGLRVKKQEELDAKLKEFVSTKGPVLLEVEVDKKVPVLPMVAGGSGLDEFINFDPEVERQQTELRHKRTGGKH
B12: in assay [2], the binding entry was “binds”.
